The results are deposited in PubChem (AID912; NCATS, 2007).

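A cell-based FRET test of anthrax lethal toxin entry, tracked through the 460 nm emission signal; the cell line is not named here. Each compound was tested as a concentration series from about 0.0005 to 40 µM. The number is the fitted AC50 of the 460 nm signal alone; lower values mean a more potent effect. A falling signal goes with compounds filed as inhibitors or cytotoxic, a rising one with activators or fluorescent compounds (inferred from the filed classes).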

Values are in µM. Common to all entries: measured here: 460 nm channel. This is a side read-out of the assay, for part of the compounds, not drawn at random. Potencies fitted to partial, single-point or poorly fitting curves are rough. The first word of each remark tells which way the curve ran; it can be opposite to the aim of the assay.

CC(C)NC[C@@H](O)COc1cccc2[nH]ccc12 read AC50 12.59 µM (falling, single point). With CS(=O)(=O)Nc1cccc(-c2ccc3ncnc(N4CCNCC4)c3c2)c1 the assay gave AC50 31.62 µM (falling, single point). O=C(CC1OC(=O)c2ccccc21)c1ccco1 (centres undefined) read AC50 3.981 µM (rising, single point). CCCCN(CC)CCNC(=O)c1cc2c(C)nc3ccccc3c2o1 gave AC50 12.59 µM (falling, partial curve).

O=c1c(-c2cccc(F)c2)nc2cncnc2n1-c1ccccc1 read AC50 10 µM (rising, partial curve). With CCOC(=O)CSc1nc2c(sc(=S)n2Cc2ccco2)c(=O)n1-c1ccc(F)cc1 the assay gave AC50 10 µM (rising, partial curve). Result for O=C(c1cccc(F)c1)N1CCC2(CC1)CN(c1cccc(-c3ccccc3)c1)C2 was AC50 31.62 µM (falling, single point). Cn1cccc1Cc1nnc(SCC(=O)N2CCCCCC2)n1CCc1ccccc1 gave AC50 7.943 µM (rising, partial curve).

With CCOC(=O)Cc1nnc(NC(=O)c2cccc(OCC)c2)s1 the assay gave AC50 25.12 µM (rising, single point). O=C1C[C@@H](O)[C@@H](O)[C@H]2[C@@H]3C(=O)N(C4CCCCC4)C(=O)[C@@H]3CC[C@H]12 gave AC50 5.012 µM (falling, single point). Result for C(CCc1nnc2c(n1)CCCC2)Cc1nnc2c(n1)CCCC2 was AC50 0.7943 µM (falling, single point). CC(C)(Oc1ccc(Cl)cc1)C(=O)O gave AC50 10 µM (falling, partial curve).

Result for O=C(O)c1[nH]c2ccccc2c1CC(=O)N1CCOCC1 was AC50 25.12 µM (rising, single point). With Cn1c2ccccc2c2c(C(=O)N3CCN(c4ccccn4)CC3)cn(C3CCCC3)c(=O)c21 the assay gave AC50 12.59 µM (rising, partial curve). COCCNC(=O)c1c(N)n(-c2cccc(C)c2)c2nc3ccccc3nc12 gave AC50 3.981 µM (rising, single point). With COC(=O)C1=CN(C2CC2)C=C(C(=O)OC)C1c1ccc(C(=O)OC)cc1 the assay gave AC50 10 µM (rising, partial curve).

c1ccc2c(c1)[I+]c1ccccc1-2 read AC50 15.85 µM (falling, partial curve). COC(=O)c1sc(=S)n(-c2cccc(Cl)c2)c1N read AC50 0.631 µM (rising, partial curve). CCc1nc2ccccc2c(C(=O)OCC(=O)Nc2ccc(S(=O)(=O)N3CCOCC3)cc2)c1C gave AC50 12.59 µM (falling, single point). CCOC(=O)N1CCN(C(=O)CN(c2cc(Cl)ccc2OC)S(=O)(=O)c2ccccc2)CC1 gave AC50 10 µM (rising, single point).

O=C(Nc1ccc2c(c1)OCCO2)C1CCN(c2nnnn2-c2ccccc2)CC1 read AC50 3.162 µM (rising, full curve, poor fit). Result for CCN(CC)N=O was AC50 31.62 µM (falling, partial curve). Result for CSc1nc(-c2ccccc2)nc2[nH]ccc(=O)c12 was AC50 2.512 µM (falling, single point). For CCOc1ccc(NC(=O)Nc2ccc3nccnc3c2)cc1 the result was AC50 15.85 µM (falling, single point).

For COC(=O)c1sccc1NS(=O)(=O)c1ccc(OC)cc1 the result was AC50 0.7943 µM (falling, partial curve, poor fit). C[C@@H](C(=O)Nc1ccc2ccccc2c1)[C@@H]1C[C@@]1(C)[C@@H](NS(=O)(=O)c1ccccc1)c1ccccc1 gave AC50 12.59 µM (falling, single point). Result for CCOC(=O)C1C(=O)C=C(C)C(C(=O)OCC)C1c1ccc(OC)cc1 (centres undefined) was AC50 0.3981 µM (rising, partial curve). Clc1ccc2c(c1)C1OCCC1C(c1ccco1)N2 (centres undefined) read AC50 10 µM (falling, single point).

Cc1noc(C)c1CSc1nc2ccccc2s1 gave AC50 10 µM (falling, partial curve). For O=C(Nc1ccc2c(c1)OCCO2)C1CCCN(S(=O)(=O)c2cccnc2)C1 (centres undefined) the result was AC50 12.59 µM (rising, single point). Result for Cn1cccc1C(=O)Nc1nccs1 was AC50 1.585 µM (rising, partial curve, poor fit). For CN1CCN(c2nc(N3CCN(c4ccccc4)CC3)ncc2F)CC1 the result was AC50 5.012 µM (falling, partial curve).

COC(=O)C1(Cc2ccccc2)C2c3cc(C(=O)N4CCCC4)n(Cc4ccc(OC(F)(F)F)cc4)c3CC2CN1C(=O)c1ccccc1 (centres undefined) read AC50 1.585 µM (rising, partial curve). CCOC(=O)C1CCN(C(=O)C2CCN(S(=O)(=O)c3cccc4cccnc34)CC2)CC1 read AC50 19.95 µM (rising, single point). With NC[C@H](O)c1ccc(O)cc1 the assay gave AC50 12.59 µM (rising, single point).

The last 4 entries again:

| Compound | AC50 (µM) | curve |
|---|---|---|
| `CN1CCN(c2nc(N3CCN(c4ccccc4)CC3)ncc2F)CC1` | 5.012 | falling, partial curve |
| `COC(=O)C1(Cc2ccccc2)C2c3cc(C(=O)N4CCCC4)n(Cc4ccc(OC(F)(F)F)cc4)c3CC2CN1C(=O)c1ccccc1` (centres undefined) | 1.585 | rising, partial curve |
| `CCOC(=O)C1CCN(C(=O)C2CCN(S(=O)(=O)c3cccc4cccnc34)CC2)CC1` | 19.95 | rising, single point |
| `NC[C@H](O)c1ccc(O)cc1` | 12.59 | rising, single point |